No constants are given. Whether binding was seen depends on the method and setting.

Chains of the proteins cited; added tags and fusions are not shown. Residues count along the entry.
UniProt Q4WER9, residues 20-378: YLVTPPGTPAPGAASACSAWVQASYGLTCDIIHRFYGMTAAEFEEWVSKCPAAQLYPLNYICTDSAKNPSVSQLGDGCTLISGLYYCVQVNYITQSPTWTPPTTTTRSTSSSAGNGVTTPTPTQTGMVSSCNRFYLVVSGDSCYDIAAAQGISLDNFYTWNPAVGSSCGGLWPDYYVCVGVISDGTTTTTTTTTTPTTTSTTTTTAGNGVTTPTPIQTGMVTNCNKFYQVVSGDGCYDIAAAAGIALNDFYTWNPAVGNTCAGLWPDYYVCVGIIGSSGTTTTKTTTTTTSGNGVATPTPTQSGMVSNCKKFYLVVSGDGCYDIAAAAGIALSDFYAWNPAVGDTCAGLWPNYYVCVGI

The target of this test is recombinant Aspergillus fumigatus LysM domain protein A (LdpA) expressed in Pichia pastoris (Aspergillus fumigatus) (UniProt Q4WER9). Kind of test: flow cytometry on beads; rLdpA (20 μg) held on 1 mg Dynabeads (His-Tag Isolation & Pulldown kit); incubated with FITC-labeled lectin (20 μg); lectin bound to rLdpA measured by flow cytometry; both purified.

B1: fluorescein isothiocyanate (FITC)-labeled peanut agglutinin (protein, UniProt P02872 24-273)
chain: AETVSFNFNSFSEGNPAINFQGDVTVLSNGNIQLTNLNKVNSVGRVLYAMPVRIWSSATGNVASFLTSFSFEMKDIKDYDPADGIIFFIAPEDTQIPAGSIGGGTLGVSDTKGAGHFVGVEFDTYSNSEYNDPPTDHVGIDVNSVDSVKTVPWNSVSGAVVKVTVIYDSSTKTLSVAVTNDNGDITTIAQVVDLKAKLPERVKFGFSASGSLGGRQIHLIRSWSFTSTLITTTRRSIDNNEKKIMNMASA
modifications: FITC label (site not stated)
Take B1: the binding result is on record as “no binding (tested: 20 μg of lectin)”.

The values above are taken from paper PMC10763971.
